# Test results from PubChem BioAssay AID493014 (National Center for Advancing Translational Sciences (NCATS), 2011).
# The list shows a part of the results. Shown are side measurements of this screen, not its main read-out; they come without a call. The list favours compounds with an active or inconclusive main result. The note in brackets gives the kind of curve behind each potency; many fits are weak.
# Assay: qHTS Assay to Find Inhibitors of Chronic Active B-Cell Receptor Signaling
# Conditions: ABC-DLBCL IkBa-CBG/CBR reporter, luminescence ratio (green luciferase fused to IkBa over red control in TMD8 lymphoma cells), 4 h
# Method in brief: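 Cell line TMD8 (human ABC DLBCL), stably expressing tet-inducible CBG68-IkBa fusion and CBR; IMDM/0.5% FBS; cpd up to 46 uM; dox induction, 4 h, 37C/5% CO2; dual luminescence; green/red ratio; MG132 control.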
# [1] = measured here: CBR red luminescence, cell number
# [2] = measured here: IkBa-CBG green luminescence
compound,measurement,setting,value
CN(C(=O)c1ccccn1)c1nnc(-c2cnccn2)s1,AC50,[1],"2.51 µM [rising, full curve, poor fit]"
CC(C)CNC(=O)Nc1ccccc1F,AC50,[1],"0.112 µM [rising, full curve, poor fit]"
COC(=O)c1ccsc1NC(=O)CSc1nnnn1Cc1ccccc1,AC50,[1],"5.8 µM [falling, partial curve, poor fit]"
Cc1c(C(=O)C(=O)NCc2ccco2)c2ccccc2n1C,AC50,[1],"2.51 µM [rising, partial curve, poor fit]"
Nc1nc(-c2ccc(Cl)cc2)nn1C(=O)c1cccs1,AC50,[1],"0.355 µM [falling, full curve, poor fit]"
CCOc1cc2c3c(c1)C1(OCCO1)C(=O)N3C(C)(C)CC2C (centres undefined),AC50,[1],"6.51 µM [falling, single point]"
CC1(C)CC(=O)C=C(c2cccc(Cl)c2O)C1,AC50,[1],"10.3 µM [rising, partial curve, poor fit]"
COC(=O)C1=CN(Cc2ccc(OC)c(OC)c2)C=C(C(=O)OC)C1c1cccc(O)c1,AC50,[1],"1 µM [rising, full curve, poor fit]"
same,AC50,[2],"0.891 µM [falling, full curve]"
COc1ccc(-c2nc3cnccn3c2NC(C)(C)CC(C)(C)C)cc1O,AC50,[1],"35.5 µM [falling, single point]"
CCOC(=O)Cc1csc(NC(=O)c2ccco2)n1,AC50,[1],"29.1 µM [falling, single point]"
CCN=c1scc(-c2cccs2)n1/N=C/c1cc(OC)ccc1O,AC50,[1],"0.00517 µM [rising, full curve, poor fit]"
COc1ccccc1C1CCN(Cc2cccc3ccccc23)CC1,AC50,[1],"35.5 µM [rising, single point]"
OCC1(O)OC[C@@H](O)[C@H]1O (some centres undefined),AC50,[1],"2.82 µM [falling, partial curve, poor fit]"
C=CCn1c(SCC(=O)N2CCN(CCO)CC2)nc2sc3c(c2c1=O)CCC3,AC50,[1],"14.1 µM [falling, partial curve, poor fit]"
CC(C)(C)NC(=O)CSC(=Nc1ccccc1F)NC#N,AC50,[1],"13 µM [falling, partial curve, poor fit]"
same,AC50,[2],"25.9 µM [rising, partial curve, poor fit]"
CCCn1c(=O)c(C(=O)NCCCc2ccccc2)c(O)c2ccccc21,AC50,[1],"11.2 µM [rising, partial curve, poor fit]"
CCn1cc(/C=C(\NC(=O)c2ccccc2F)C(=O)NCCCN2CCOCC2)c2ccccc21,AC50,[1],"2.82 µM [falling, partial curve, poor fit]"
O=C(N/N=C\CCc1ccccc1)c1ccco1,AC50,[1],"18.4 µM [falling, partial curve, poor fit]"
NS(=O)(=O)c1cccc(-n2cnnn2)c1,AC50,[1],"3.16 µM [rising, partial curve, poor fit]"
same,AC50,[2],"6.31 µM [falling, single point]"
Cc1[nH]c2ccccc2c1/C=N/Nc1nc(Nc2ccccc2)nc(N2CCOCC2)n1,AC50,[1],"3.55 µM [falling, full curve]"
CN1CCC(Oc2ccccc2Sc2ccc(C(F)(F)F)cc2)CC1,AC50,[1],"14.6 µM [falling, single point]"
N#C/C(=C\c1cccs1)c1nc2ccccc2[nH]1,AC50,[1],"29.1 µM [falling, single point]"
O=C(N/N=C/c1ccco1)c1cc(-c2cccs2)[nH]n1,AC50,[1],"10.3 µM [falling, partial curve]"
COC(=O)c1ccc2nc(C)cc(Nc3ccc(N(C)C)cc3)c2c1,AC50,[1],"5.17 µM [falling, full curve]"
CN(C)C(=O)c1ccc(NC(=O)COC(=O)Cn2cc(C(F)(F)F)ccc2=O)cc1,AC50,[1],"29.1 µM [rising, single point]"
COc1cc(/C=C2\SC(=S)N(CCC(=O)N3CCCCC3)C2=O)cc(OC)c1OC,AC50,[1],"10 µM [falling, partial curve]"
O=C(NC(Cc1ccccc1)C(=O)O)OCc1ccccc1 (centres undefined),AC50,[1],"5.01 µM [rising, full curve, poor fit]"
Cc1cc(NS(=O)(=O)c2ccc(NC(=O)c3ccc(F)cc3)cc2)nc(C)n1,AC50,[1],"25.9 µM [rising, partial curve, poor fit]"
Cc1cc(C)c(S(=O)(=O)N(CC(=O)N2CCOCC2)C2CCCCC2)c(C)c1,AC50,[1],"10.3 µM [rising, partial curve]"
Clc1ccc2nnnc(-c3ccccc3)c2c1,AC50,[2],"29.1 µM [falling, partial curve, poor fit]"
O=C(NCc1ccncc1)C(=O)Nc1ccc2c(c1)OCO2,AC50,[1],"5.01 µM [falling, partial curve, poor fit]"
CC(C)Oc1nc(-c2ccccc2Cl)nc2ccccc12,AC50,[1],"35.5 µM [rising, single point]"
CCn1c2ccccc2c2cc(NC(=O)c3ccco3)ccc21,AC50,[1],"5.17 µM [rising, full curve]"
COc1ccccc1C(=O)NC(=S)NNC(=O)c1sc2ccccc2c1Cl,AC50,[1],"23.1 µM [falling, partial curve, poor fit]"
CC(=O)N(Cc1ccco1)C1(C(=O)NC2CCCC2)CCCCC1,AC50,[1],"2.31 µM [rising, partial curve, poor fit]"
O=C1NC(=O)C(c2cccs2)(c2cccs2)N1,AC50,[1],"2.82 µM [rising, single point]"
CC(=O)C1=C(NC(=O)c2ccccc2F)C[C@@H]2[C@H]1C2(C)C,AC50,[1],"9.2 µM [rising, partial curve]"
COc1ccc(C2/C=C\CN(C(=O)Nc3ccccc3-c3ccccc3)CC(=O)N2Cc2ccc(F)cc2)cc1 (centres undefined),AC50,[1],"11.2 µM [falling, single point]"
Cc1nc(NC2=NCN(Cc3ccccc3)CN2)nc2ccccc12,AC50,[1],"35.5 µM [falling, single point]"
CC(C)N(CCn1c(SCC(=O)Nc2cccnc2Cl)nc2ccccc2c1=O)C(C)C,AC50,[1],"2.31 µM [rising, partial curve, poor fit]"
O=c1[nH]c2ccccc2c(O)c1O,AC50,[1],"20 µM [falling, partial curve, poor fit]"

# Quoted at random: 2 entries already listed
compound,measurement,setting,value
Cc1cc(NS(=O)(=O)c2ccc(NC(=O)c3ccc(F)cc3)cc2)nc(C)n1,AC50,[1],"25.9 µM [rising, partial curve, poor fit]"
COC(=O)C1=CN(Cc2ccc(OC)c(OC)c2)C=C(C(=O)OC)C1c1cccc(O)c1,AC50,[1],"1 µM [rising, full curve, poor fit]"
